In PubChem BioAssay AID1498 (National Center for Advancing Translational Sciences (NCATS), 2009) one finds ratio activity, RFP activity and AC50 data, which are given here for six molecules.

The other results are listed elsewhere or left out. These are further read-outs of the screen, such as a control signal, another cell line or another target. No call is given for them. Compounds called inactive in the main read-out are mostly missing here. Potencies come from curve fits of mixed quality, noted in brackets.

The nature of this assay: Confirmation Concentration-Response Assay for Modulators of Lamin A Splicing. The note with it: HeLa lamin A splicing GFP/RFP minigene, Acumen, 48 h; for ratio activity: GFP/RFP ratio at top concentration; for ratio activity / RFP activity: at 46.1 µM; for RFP activity: RFP channel at top concentration. The source says: NCGC Assay Overview: Hutchinson-Gilford Progeria Syndrome (HGPS) is a pediatric premature aging disease caused by a spontaneous mutation in the lamin A/C (LMNA) gene. The mutation activates a cryptic splice site in the LMNA pre-mRNA which results in production of a pre-lamin A protein that cannot be processed properly. The mutant protein accumulates in the nucleus and negatively affects numerous cellular functions. Correction of the splicing defect in HGPS patient cells using a targeted oligonucleotide (exo11) leads to reversal of the cellular disease phenotypes. To identify small molecule modulators of aberrant LMNA splicing, a homogenous assay was constructed in HeLa cells that used a GFP containing minigene to report on correction of aberrant splicing in lamin A and a RFP (DsRed2) to report on cell viability, uniformity and nonspecific effects on the assay signal. This assay was adapted to laser-scanning microplate cytometry (Acumen, TTP Labtech) where miniaturization of the assay to a 1,536-well plate format was possible. Select compounds active in the primary screen (AID 1487) were chosen for confirmation based on potency, efficacy, SAR and activity in other assays in PubChem and at NCGC. References: Bowen, W. P.; Wylie, P. G. Application of Laser-Scanning Fluorescence Microplate Cytometry in High Content Screening. Assay Drug Dev Technol 2006;4:209-221. Scaffidi P, Misteli T. Reversal of the cellular phenotype in the premature aging disease Hutchinson-Gilford progeria syndrome. Nat. Med. 2005;11:440-445.
NCGC Assay Protocol Summary: Reagents/Controls: Stable clones expressing DsRed2 and lamin A-EGFP were generated by Cell and Molecular Technologies in S3 HeLa cells. HeLa cells were prepared for the assay when they were 70-90% confluent. The cells were counted and resuspended in Opti-MEM I (no phenol red; Gibco), 2% FBS, 1% penicillin/ streptomycin (Gibco) at concentration of 120 cells/uL concentration. The suspension was passed through a Falcon basket filter with pore size 40um (Beckton Dickson). Control titrations: column […] 1536-well plate contained a sixteen point titration (1:2 dilutions) in duplicate of ancitabine (Sigma: A8598) beginning at 40 uM final concentration. Column 2 contained a sixteen point titration (1:2 dilutions) of cycloheximide beginning at 1.4 mM final concentration. Column 3 contained ancitabine at 40 uM and column 4 contained was the vehicle control (0.5% DMSO final concentration). Assay Steps: 5 uL of HeLa cells were plated in Aurora LoBase black clear bottom (cyclic-olefin polymer) 1536-well plates at a final density of 600 cells/well. Controls and library compounds were added with a 1536-well pin array using the Kalypsys pin-tool. The plates were then incubated for 48 hrs in a cell-culture incubator (37 °C; 5% CO2, 98% humidity). Following incubation the plates were read on the Acumen Explorer using the 488 nm laser. Data was collected on objects between 10 and 100 um in size. Cell objects were defined by a 15 um width x 10 um depth filter. The ratio of the total object intensity in PMT1 (500-530 nm emission; GFP) over PMT3 (575-640 nm emission; RFP) was calculated for analysis. Keywords: NIH Roadmap, MLSCN, MLI, MLSMR, qHTS, NCGC, lamin A, Progeria, RNA splicing.

[1] abbreviates: measured here: GFP/RFP ratio splicing readout.
[2] abbreviates: measured here: RFP viability/nonspecific counter channel.

For the molecule `CC(C)c1oc(=O)cc2c1[C@@H](O)[C@H]1OC(=O)[C@@]3(C)C[C@@H](O)[C@@H](O)[C@@]2(C)C13` (some centres not stated), the ratio activity was -40.9% and the RFP activity is -75.4%. The concentration at half-maximal activity (AC50) (as a rule, the concentration giving half of the maximal activity seen) under setting [1] was 7.94 µM [falling, full curve, poor fit]. The AC50 under setting [2] was 15.8 µM [falling, full curve, poor fit].

Take `COc1cc(OC)c(/C=C2/C(=O)Nc3ccccc32)c(OC)c1`: the ratio activity is -36.4% and the RFP activity is -20.8%. Besides, under setting [1], the AC50 is 12.6 µM [falling, partial curve, poor fit]. In addition, the AC50 under setting [2] is 8.91 µM [falling, full curve, poor fit].

Regarding `O=C(O)c1ccccc1-c1c2cc(Br)c(=O)cc-2oc2[c]([Hg])c(O)c(Br)cc12`, the ratio activity was -100% and the RFP activity was -100%. The AC50 under setting [1] was 7.94 µM [rising, full curve]. Besides, under setting [2], the half-maximal activity concentration (AC50) was 3.98 µM [falling, full curve].

As for `NC(=O)c1cn(C2OC(CO)C(O)C2O)c2ncnc(N)c12` (configuration not stated), the ratio activity is -35.6% and the RFP activity is -91.7%. In addition, under setting [1], the AC50 was 0.708 µM [falling, full curve, poor fit].

Regarding `C[C@@H]1O[C@@H](O[C@H]2C[C@@H](O)[C@]3(CO)[C@@H]4C(CC[C@]3(O)C2)[C@@]2(O)CC[C@H](C3=CC(=O)OC3)[C@@]2(C)C[C@H]4O)[C@H](O)[C@H](O)[C@H]1O` (some centres not stated), the ratio activity is -50% and the RFP activity is -5.97%. The AC50 under setting [1] is 0.316 µM [falling, full curve].

For the molecule `CC1CC(C)C(=O)[C@H](C(O)CC2CC(=O)NC(=O)C2)C1` (some centres not stated), the ratio activity is -37.2% and the RFP activity was -97.1%. Besides, the AC50 under setting [1] is 0.1 µM [falling, full curve]. The AC50 under setting [2] is 5.01 µM [falling, full curve].
